Measurements taken from US20200080055A1, “COMPOSITIONS AND METHODS FOR GENERATING HAIR CELLS BY UPREGULATING PI3K” (Frequency Therapeutics, Inc., priority 2018, published 2020).
At least one compound was matched to its structure with a doubt left.

Test system: cochlear Lgr5 progenitor cells
Test: Lgr5+ assay: expansion and enrichment of cochlear Lgr5 progenitor cells in 3D culture
Type: cell-based, mouse
Conditions: Table 5, concentration range, units printed in the cell
Excerpt: “Stem Cell Proliferation Assay” as used herein is an assay to determine the capacity for agent(s) to induce the creation of stem cells from a starting cell population. In an exemplary Stem Cell Proliferation Assay, the number of cells for an initial cell population is harvested from a Lgr5-GFP mouse such as a B6.129P2-Lgr5tm1(cre/ERT2)Cle/J mouse (also known as Lgr5-EGFP-IRES-creERT2 or Lgr5-GFP mouse, Jackson Lab Stock No: 008875) between the age of 0 to 5 days, by isolating the organ of Corti sensory epithelium and dissociating the epithelium into single cells. […] Appropriate culture media and growth factors include Advanced DMEM/F12 with media Supplements (1×N2, 1×B27, 2 mM Glutamax, 10 mM HEPES, 1 mM N-acetylcysteine, and 100 U/ml Penicillin/[…] Streptomycin) and growth factors (50 ng/ml EGF, 50 ng/ml bFGF, and 50 ng/ml IGF-1) as well as the agent(s) being assessed are added into each well. […] The number of Lgr5+ cells is quantified by counting the number of cells identified as Lgr5+ in an In Vitro Lgr5 activity assay. The fraction of cells that are Lgr5+ is quantified by dividing the number of cells identified as Lgr5+ in a cell population by the total number of cells present in the cell population. […]
Lgr5 cells were quantified after 7-10 days. […] The cells were then stained with propidium iodide (PI) and analyzed using a flow cytometer to count Lgr5-EGFP cells. […]

## O=C([O-])CCCc1ccccc1.[Na+] [Na phenylbutyrate]
  Lgr5+ Assay: 100 uM-4 mM
